Here are results for 19 molecules from patent US20250283129A1, “PROCESS” (Sun Pharmaceutical Industries Australia Pty Limited, priority 2021, published 2025).

Residue numbers refer to the chain shown, from its start. Names may count otherwise.

B1: E259S: codeine 3-O-demethylase with amino acid substitution E259S (protein, listed as Papaver somniferum)
chain: METPILIKLGNGLSIPSVQELAKLTLAEIPSRYTCTGESPLNNIGASVTDDETVPVIDLQNLLSPEPVVGKLELDKLHSACKEWGFFQLVNHGVDALLMDNIKSEIKGFFNLPMNEKTKYGQQDGDFEGFGQPYIESEDQRLDWTEVFSMLSLPLHLRKPHLFPELPLPFRETLESYLSKMKKLSTVVFEMLEKSLQLVEIKGMTDLFEDGLQTMRMNYYPPCPRPELVLGLTSHSDFSGLTILLQLNEVEGLQIRKESRWISIKPLPDAFIVNVGDILEIMTNGIYRSVEHRAVVNSTKERLSIATFHDSKLESEIGPISSLVTPETPALFKRGRYEDILKENLSRKLDGKSFLDYMRM
B2: E259H: codeine 3-O-demethylase with amino acid substitution E259H (protein, listed as Papaver somniferum)
chain: B1 chain with S259H
B3: E259Q: codeine 3-O-demethylase with amino acid substitution E259Q (protein, listed as Papaver somniferum)
chain: B1 chain with S259Q
B4: R260T: codeine 3-O-demethylase with amino acid substitution R260T (protein, listed as Papaver somniferum)
chain: B1 chain with S259E, R260T
B5: E259K: endogenous CODM variant with amino acid substitution E259K (protein, listed as Papaver somniferum)
chain: B1 chain with S259K
B6: P4A: codeine 3-O-demethylase with amino acid substitution P4A (protein, listed as Papaver somniferum)
chain: B1 chain with P4A, S259E
B7: T3K: codeine 3-O-demethylase with amino acid substitution T3K (protein, listed as Papaver somniferum)
chain: B1 chain with T3K, S259E
B8: E259D+R260K: codeine 3-O-demethylase with amino acid substitutions E259D and R260K (protein, listed as Papaver somniferum)
chain: B1 chain with S259D, R260K
B9: Y357S: codeine 3-O-demethylase with amino acid substitution Y357S (protein, listed as Papaver somniferum)
chain: B1 chain with S259E, Y357S
B10: E259G+R260K: codeine 3-O-demethylase with amino acid substitutions E259G and R260K (protein, listed as Papaver somniferum)
chain: B1 chain with S259G, R260K
B11: E259A: codeine 3-O-demethylase with amino acid substitution E259A (protein, listed as Papaver somniferum)
chain: B1 chain with S259A
B12: M360I: codeine 3-O-demethylase with amino acid substitution M360I (protein, listed as Papaver somniferum)
chain: B1 chain with S259E, M360I
B13: 17M: codeine 3-O-demethylase with amino acid substitution I7M (protein, listed as Papaver somniferum)
chain: B1 chain with I7M, S259E
B14: E259D: codeine 3-O-demethylase with amino acid substitution E259D (protein, listed as Papaver somniferum)
chain: B1 chain with S259D
B15: T3K+P4A+15K+17K: codeine 3-O-demethylase with amino acid substitutions T3K, P4A, I5K and I7M (protein, listed as Papaver somniferum)
chain: B1 chain with T3K, P4A, I5K, I7M, S259E
B16: 15K: codeine 3-O-demethylase with amino acid substitution I5K (protein, listed as Papaver somniferum)
chain: B1 chain with I5K, S259E
B17: T3K+P4A+15K+17M+Y357S+M360I: codeine 3-O-demethylase with amino acid substitutions T3K, P4A, I5K, I7M, Y357S and M360I (protein, listed as Papaver somniferum)
chain: B1 chain with T3K, P4A, I5K, I7M, S259E, Y357S, M360I
B18: E259G: codeine 3-O-demethylase with amino acid substitution E259G (protein, listed as Papaver somniferum)
chain: B1 chain with S259G
B19: 15K+M360I: codeine 3-O-demethylase with amino acid substitutions I5K and M360I (protein, listed as Papaver somniferum)
chain: B1 chain with I5K, S259E, M360I

The nature of one data set: Soluble protein expression by SDS-PAGE densiometric analysis. Also on record: species or system E. coli.
Conditions: not given
For B1, the “level of soluble protein expression compared to WT CODM (in words)” value (shortened to “level … compared to WT CODM (in words)”) is listed as “reduction in the expression of soluble protein”.
Regarding B2, the “level … compared to WT CODM (in words)” value is “reduction in the expression of soluble protein”.
For B3, the “level … compared to WT CODM (in words)” value is listed as “reduction in the expression of soluble protein”.
As to B4, the “less soluble protein expressed than WT CODM” value is approximately 63%.
For the molecule B5, the “level … compared to WT CODM (in words)” value is “reduction in the expression of soluble protein”.
For the molecule B6, the “level … compared to WT CODM (in words)” value is listed as “little change”.
Same read-out and setting: the result for B7 reads “little change”.
As for B8, the “level … compared to WT CODM (in words)” value was “comparable to the E259D and E259G single mutant strains”.
Take B9: the “level … compared to WT CODM (in words)” value is “little change”.
In the case of B10, the “level … compared to WT CODM (in words)” value is “comparable to the E259D and E259G single mutant strains”.
On to B11, for which the “level … compared to WT CODM (in words)” value was “reduction in the expression of soluble protein”.
Still for that read-out and setting: for B12 the value was “only small changes in protein expression”; for B13, “little change”.

The same data set, now with this note: fold of WT CODM.
For B14, the “soluble protein expressed compared to WT CODM” value is on record as approximately 2.1 ×.
As to B15, the “soluble protein expressed compared to WT CODM” value is recorded as approximately 3.2 ×.
Consider B16, for which the “soluble protein expressed compared to WT CODM” value was approximately 2.9 ×.
For B17, the “soluble protein expressed compared to WT CODM” value is approximately 4 ×.
Same read-out and setting: the result for B18 reads approximately 1.5 ×.
As to B19, the “soluble protein expressed compared to WT CODM” value is approximately 5.5 ×.
